Assay: general procedure: Fmoc solid-phase peptide synthesis; Polystyrene Rink amide resin, 75–100 mesh, 1% DVB, 0.5 mmol/g (Advanced Chemtech); HBTU, DIEA in DMF
Details: whole synthesis; for final LC-MS purity / crude LC-MS purity: 280 nm; for final LC-MS purity / crude LC-MS purity / isolated yield: scale of the general procedure 200 mg resin (0.5 mmol/g)
[1] = LC-MS, 10–90% MeOH or MeCN (0.1% FA) in water (0.1% FA) over 14 min

Substance | isolated mass [mg] | final LC-MS purity [%] | crude LC-MS purity [1] [%] | final LC-MS purity [1] [%] | isolated yield [%]
H-D-Arg-D-Tyr-(S)-Agl-D-Val-D-Glu-D-Leu-D-Ala-NH2 | 12 | >99 | 42 | >95 | 15
H-D-Arg- D-Tyr-(3S ,4S)-Hgl-(S)-Val-D-Glu- D-Leu- D-Ala-NH2 | 10 | >99 | 45 | >95 | 12
H-D-Arg-D-Tyr-(R)-Agl-(S)-Val-D-Glu-D-Leu-D-Ala-NH2 | 13 | >97 | 63 | >95 | 16
H-D-Arg-D-Tyr-(S)-Agl-(S)-Val-D-Glu-D-Leu-D-Ala-NH2 | 11 | >99 | 56 | >95 | 13
H-D-Arg- D-Tyr-(3R ,4S)-Hgl-(S)-Val-D-Glu-D-Leu- D-Ala-NH2 | 11 | >99 | 52 | >95 | 13
H-D-Arg- D-Tyr-(3R ,4S)-Hgl-D-Val- D-Glu- D-Leu- D-Ala- NH2 | 12 | >99 | 69 | >95 | 14
H-D-Arg- D-Tyr-(3S ,4R)-Hgl-D-Val- D-Glu-D-Leu- D-Ala- NH2 | 9 | >99 | 42 | >95 | 11
H-D-Arg- D-Tyr-(3S ,4S)-Hgl-D-Val- D-Glu- D-Leu- D-Ala- NH2 | 8 | >99 | 35 | >95 | 9
H-D-Arg- D-Tyr-(3S ,4R)-Hgl-(S)-Val-D-Glu-D-Leu- D-Ala-NH2 | 10 | >99 | 39 | >95 | 12
H-D-Arg-D-Tyr-(R)-Agl-D-Val-D-Glu-D-Leu-D-Ala-NH2 | 10 | >99 | 44 | >95 | 12
H-D-Arg- D-Tyr-(3R ,4R)-Hgl-D-Val- D-Glu- D-Leu- D-Ala- NH2 | 7 | >99 | 42 | >95 | 8
H-D-Arg- D-Tyr-(3R ,4R)-Hgl-(S)-Val-D-Glu-D-Leu- D-Ala-NH2 | 11 | >99 | 55 | >95 | 13
